The list is a part of this screen's results and no random one: it gathers tests that were run many times, whatever their T/C, doses with no T/C, and many T/C values between a quarter and a half above the control. Further doses and runs are listed elsewhere. T/C is the treated group as % of the vehicle group. Some doses have a count of surviving animals in place of a T/C: the source files T/C as zero there, which appears to mark a toxic dose or a test without result, not a measured value. Some doses without a T/C left all or most animals alive at the check, yet need not have been tolerated: survival well below the control is almost never listed, so the zero probably covers shortened survival too. Survivors were counted at the toxicity check, usually on the fifth day, unless a day is given; later deaths do not show. Schedules are NCI's codes, read here as Q, the interval in days (D) or hours (H), X, the number of doses. Some entries were tested several times; the values are given in rising order. For survival time, the PubChem record calls one and a half times the control and up active, and a quarter to a half above the control has no call in these data; cut-offs in other NCI protocols can differ. Some T/C values carry the count of animals alive at the toxicity check (mostly the fifth day); where none is given, no animal had died by that day.
Test system: P388 leukemia ip, CD2F1 mice, survival T/C
Assay: NCI In Vivo Anticancer Drug Screen. Data for tumor model P388 Leukemia (intraperitoneal) in CD2F1 (CDF1) mice
Settings: T/C endpoint: median survival time, higher T/C = longer survival
[1] = dose: 240.0 mg/kg/injection, schedule: Q01DX005 (ip), vehicle: Klucel (hydroxypropylcellulose) (HPC)
[2] = dose: 120.0 mg/kg/injection, schedule: Q01DX005 (ip), vehicle: saline with Tween-80
[3] = dose: 100.0 mg/kg/injection, schedule: Q01DX005 (ip), vehicle: saline with Tween-80
[4] = dose: 200.0 mg/kg/injection, schedule: Q01DX005 (ip), vehicle: saline with Tween-80
[5] = dose: 25.0 mg/kg/injection, schedule: Q01DX009 (ip), vehicle: saline with Tween-80
[6] = dose: 50.0 mg/kg/injection, schedule: Q01DX009 (ip), vehicle: saline with Tween-80
[7] = dose: 100.0 mg/kg/injection, schedule: Q01DX009 (ip), vehicle: saline with Tween-80
[8] = dose: 200.0 mg/kg/injection, schedule: Q01DX009 (ip), vehicle: saline with Tween-80
[9] = dose: 100.0 mg/kg/injection, schedule: Q01DX009 (ip), vehicle: saline
[10] = dose: 200.0 mg/kg/injection, schedule: Q01DX009 (ip), vehicle: saline
[11] = dose: 600.0 mg/kg/injection, schedule: Q01DX009 (ip), vehicle: saline
[12] = dose: 60.0 mg/kg/injection, schedule: Q01DX005 (ip), vehicle: saline with Tween-80
[13] = dose: 200.0 mg/kg/injection, schedule: Q04DX003 (ip), vehicle: saline
[14] = dose: 50.0 mg/kg/injection, schedule: Q01DX005 (ip), vehicle: saline with Tween-80
[15] = dose: 100.0 mg/kg/injection, schedule: Q04DX002 (ip), vehicle: saline with Tween-80
[16] = dose: 400.0 mg/kg/injection, schedule: Q04DX002 (ip), vehicle: saline with Tween-80

## C/C=C/C(C)C1OC1(C)C(O)C1COC(=O)C(O)C(OC)C(C)C(=O)C(C)C(O)/C(C)=C/C(C)C(=O)CC(O)C(C)C1=O (centres undefined)
dose: 12.5 micrograms/kg/injection, schedule: Q01DX005 (ip), vehicle: saline
  survivor count: 0 of 6 and 1 of 6
dose: 25.0 micrograms/kg/injection, schedule: Q01DX005 (ip), vehicle: saline
  survivor count: 0 of 6
dose: 50.0 micrograms/kg/injection, schedule: Q01DX005 (ip), vehicle: saline
  survivor count: 0 of 6

## CC1(C)CN=C(NN=C(/C=C/c2ccc(C(F)(F)F)cc2)/C=C/c2ccc(C(F)(F)F)cc2)NC1
[1]
  survivor count: 5 of 6

## CCOC(=O)/C=C(\C)C(F)(F)F
[2]
  T/C: 136 % of control

## O=[N+]([O-])C(c1ccccc1)C(c1ccccc1)[N+](=O)[O-] (centres undefined)
[3]
  T/C: 128 % of control [5 of 6 alive]
[4]
  survivor count: 3 of 6 and 4 of 6

## CCCOC(=O)/C=C(\Br)C(=O)OCCC
[5]
  T/C: 126 % of control
[6]
  survivor count: 2 of 6 and 6 of 6
[7]
  survivor count: 2 of 6
[8]
  survivor count: 1 of 6

## CCCCCCCCCCCCCCCCOc1ccc(S(=O)(=O)N/N=c2/sc3ccc(S(=O)(=O)O)cc3n2C)cc1C(=O)O
[6]
  survivor count: 6 of 6
[8]
  survivor count: 1 of 6

## COc1c(CCl)cc(-c2sc3ccccc3c(=O)c2CCl)cc1CCl
[3]
  T/C: 128 % of control

## COc1cc(S(=O)(=O)O)ccc1N=N/C(=N\Nc1ccc(S(=O)(=O)O)cc1OC)C(N)=O
dose: 50.0 mg/kg/injection, schedule: Q01DX005 (ip), vehicle: Klucel (hydroxypropylcellulose) (HPC)
  survivor count: 6 of 6

## Nc1cccc(=O)[nH]1
[9]
  T/C: 126 % of control
[10]
  T/C: 127 % of control
[11]
  T/C: 125 and 137 % of control

## C=COCC(C)C (tested in a mixture with another compound)
dose: 6.25 mg/kg/injection, schedule: Q01DX009 (ip), vehicle: saline with Tween-80
  survivor count: 3 of 6
dose: 12.5 mg/kg/injection, schedule: Q01DX009 (ip), vehicle: saline with Tween-80
  survivor count: 0 of 6
[5]
  survivor count: 0 of 6 and 1 of 6
[6]
  survivor count: 0 of 6
[7]
  survivor count: 0 of 6

## N#Cc1ccccc1C#N
dose: 6.25 mg/kg/injection, schedule: Q04DX003 (ip), vehicle: saline with Tween-80
  T/C: 125 % of control

## Nc1ncnc2c1c1c(=S)nc[nH]c1n2C1OC(CO)C(O)C1O (centres undefined)
dose: 6.25 mg/kg/injection, schedule: Q01DX009 (ip), vehicle: water
  T/C: 138 % of control
dose: 12.5 mg/kg/injection, schedule: Q01DX009 (ip), vehicle: water
  T/C: 149 % of control

## O=C(O)c1ccnc(C(=O)O)c1
dose: 400.0 mg/kg/injection, schedule: Q01DX001 (ip), vehicle: saline with Tween-80
  survivor count: 3 of 6

## COc1cc(OC)c(/C=N/NC(=S)NC23CC4CC(CC(C4)C2)C3)c(OC)c1
[12]
  survivor count: 6 of 6
[2]
  survivor count: 6 of 6

## O=C(O)C(=O)c1ccc(-c2ccccc2)cc1
[13]
  survivor count: 5 of 6

## O=C(O)c1cc2ccc3cccc4ccc(c1)c2c34
[4]
  T/C: 135 % of control [4 of 5 alive]

## Oc1cccc([C@@]23CCCC[C@H]2CN(CC2CC2)CC3)c1
[4]
  survivor count: 0 of 6

## C(=C\c1ccccc1)/c1ccccc1
[14]
  survivor count: 1 of 6
[3]
  survivor count: 0 of 6
[4]
  survivor count: 0 of 6

## CCCCCCCCCCCC1=c2o[nH]c2=C(c2ccccn2)C(=O)C1=O
[4]
  survivor count: 6 of 6

## CCCCOC(=O)/C=C(\I)C(=O)OCCCC
[7]
  survivor count: 3 of 6
[8]
  survivor count: 3 of 6

## COc1ccc(C(NC(N)=O)c2cc3c(cc2OC(C)=O)OCO3)c(OC)c1 (centres undefined)
dose: 120.0 mg/kg/injection, schedule: Q01DX005 (ip), vehicle: Klucel (hydroxypropylcellulose) (HPC)
  survivor count: 6 of 6
[1]
  survivor count: 6 of 6

## CO/N=C1\CC(C)N2C(=O)C(C(C)C)NC(=O)C(NC(=O)c3c4nc5c(C(=O)NC6C(=O)NC(C(C)C)C(=O)N7C(C)CC(O)C7C(=O)N(C)CC(=O)N(C)C(C(C)C)C(=O)OC6C)ccc(C)c5oc-4c(C)c(=O)c3N)C(CO)OC(=O)C(C)N(C)C(=O)CN(C)C(=O)C12 (centres undefined)
dose: 1.5 mg/kg/injection, schedule: Q01DX005 (ip), vehicle: saline with Tween-80
  T/C: 136 % of control
dose: 3.13 mg/kg/injection, schedule: Q01DX005 (ip), vehicle: saline with Tween-80
  T/C: 136 % of control
dose: 6.25 mg/kg/injection, schedule: Q01DX005 (ip), vehicle: saline with Tween-80
  T/C: 148 % of control
[14]
  survivor count: 1 of 6

## NC(=S)SCCC(=O)N1CCCCC1
dose: 200.0 mg/kg/injection, schedule: Q04DX002 (ip), vehicle: Klucel (hydroxypropylcellulose) (HPC)
  survivor count: 3 of 5
dose: 400.0 mg/kg/injection, schedule: Q04DX002 (ip), vehicle: Klucel (hydroxypropylcellulose) (HPC)
  survivor count: 1 of 5

## CN=C(N)N/N=C(C)/C(C)=C/c1ccccc1
dose: 50.0 mg/kg/injection, schedule: Q04DX002 (ip), vehicle: saline with Tween-80
  survivor count: 3 of 6
[15]
  survivor count: 0 of 6

## O=C1CCC(N2C(=O)c3ccccc3C2=O)C(=O)N1 (centres undefined)
[8]
  survivor count: 6 of 6

## CCOC(=O)c1cccc([N+](=O)[O-])c1C(=O)OCCN(CC)CC
[16]
  T/C: 137 % of control

## CC(CO)NC(=O)C1C=C2c3cccc4[nH]cc(c34)CC2N(C)C1 (centres undefined)
dose: 36.0 mg/kg/injection, schedule: Q01DX009 (ip), vehicle: saline
  survivor count: 6 of 6

## C[PH+](C)C.C[PH+](C)C.[Au]
dose: 5.0 mg/kg/injection, schedule: Q01DX009 (ip), vehicle: saline
  T/C: 140 % of control
dose: 10.0 mg/kg/injection, schedule: Q01DX009 (ip), vehicle: saline
  T/C: 135 [5 of 6 alive] and 138 % of control
dose: 20.0 mg/kg/injection, schedule: Q01DX009 (ip), vehicle: saline
  survivor count: 2 of 6 and 3 of 6

## CC(C)N(/C=C/C(=O)c1ccccc1)C(C)C
[7]
  survivor count: 5 of 6
[8]
  survivor count: 6 of 6

## N#CC1(C#N)C(CCl)C1(C#N)C#N
[9]
  survivor count: 1 of 6
[10]
  survivor count: 0 of 6

## CCCCCCCCCCCCCCCC[N+](C)(C)Cc1ccccc1
dose: 100.0 mg/kg/injection, schedule: Q04DX003 (ip), vehicle: saline
  survivor count: 0 of 6
[13]
  survivor count: 0 of 6
dose: 400.0 mg/kg/injection, schedule: Q04DX003 (ip), vehicle: saline
  survivor count: 0 of 6

## CNCC(OC)c1ccc(O)c(O)c1 (centres undefined)
dose: 400.0 mg/kg/injection, schedule: Q01DX009 (ip), vehicle: saline
  survivor count: 1 of 6
[11]
  survivor count: 0 of 6

## COC(=O)C(NP(=O)(NC(C(=O)OC)c1ccccc1)N(CCCl)CCCl)c1ccccc1 (centres undefined)
[12]
  survivor count: 6 of 6
[2]
  survivor count: 6 of 6
dose: 240.0 mg/kg/injection, schedule: Q01DX005 (ip), vehicle: saline with Tween-80
  survivor count: 6 of 6

## COC(=O)C[CH2][Sn]([CH3])([CH3])[CH2]CC(=O)OC
dose: 200.0 mg/kg/injection, schedule: Q01DX005 (ip), vehicle: Klucel (hydroxypropylcellulose) (HPC)
  survivor count: 1 of 6

## O=S1(=O)CS/C(=N\C(=S)N(c2ccccc2)c2ccccc2)N1c1ccccc1
dose: 25.0 mg/kg/injection, schedule: Q04DX003 (ip), vehicle: saline with Tween-80
  survivor count: 6 of 6
dose: 50.0 mg/kg/injection, schedule: Q04DX003 (ip), vehicle: saline with Tween-80
  survivor count: 6 of 6
dose: 100.0 mg/kg/injection, schedule: Q04DX003 (ip), vehicle: saline with Tween-80
  survivor count: 6 of 6

## FC(F)(F)COSc1ccccc1
[15]
  survivor count: 0 of 6
dose: 200.0 mg/kg/injection, schedule: Q04DX002 (ip), vehicle: saline with Tween-80
  survivor count: 0 of 6
[16]
  survivor count: 0 of 6

## Nc1nc2c(C(=O)N3CCCC3)nnn2c2ccccc12
[8]
  survivor count: 0 of 6

From PubChem BioAssay AID330 (DTP/NCI, 2004)
